Results are given in words; binding and its absence hold for the method and conditions named. Some binding calls cover weakened binding; strength is not graded here.
Target: recombinant L-asparaginase refolded from E. coli inclusion bodies (UniProt P00805)
Test: SEC; HPLC, TSK gel G3000SWxl, 20 mM Tris-HCl and 100 mM NaCl; refolded L-asparaginase concentrated to 2 mg/ml, after freeze-thaw solubilization in 2 M urea with DTT, without DTT, or in 8 M urea; from washed inclusion bodies, no chromatography before; both purified

The chains behind the UniProt entries cited, without tags or fusion partners. Residues count along the entry.
UniProt P00805, residues 23-348: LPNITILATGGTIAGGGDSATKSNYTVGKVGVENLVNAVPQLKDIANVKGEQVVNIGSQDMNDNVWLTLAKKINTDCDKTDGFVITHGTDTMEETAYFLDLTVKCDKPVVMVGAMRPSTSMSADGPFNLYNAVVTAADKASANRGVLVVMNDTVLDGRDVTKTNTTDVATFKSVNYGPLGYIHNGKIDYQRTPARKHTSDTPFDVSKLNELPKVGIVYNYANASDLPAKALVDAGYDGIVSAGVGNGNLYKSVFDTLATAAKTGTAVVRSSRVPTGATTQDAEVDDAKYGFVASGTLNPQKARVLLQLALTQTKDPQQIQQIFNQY

**Q.** “recombinant L-asparaginase refolded from E. coli inclusion bodies (from UniProt P00805 23-348) (enzyme)” was tested. Which binding did it give?
**A.** binds weakly

Source: paper PMC8093829
